Experimental findings from ChEMBL document CHEMBL4513139, “CO-ADD screening of University of Strathclyde (UK) compounds” are described below.

Molecules are shown by their SMILES. The list shows a part of the results. Entries with a potency or affinity are not part of this list.

This assay has as its system Acinetobacter baumannii. As to conditions: Concentration 32 ug.mL-1; ASSAY_TEST Inhibition of Bacterial Growth; detection method Absorption (OD600); MEDIA CAMHB; plate type 384well; NBS; CORNING #3640; time 18 hr.
The term Inhibition denotes the drop in the measured response relative to a control, in per cent. As for `Cc1ncc(CNc2ccc(C(C)(C)C)cc2)c(N)n1`, the Inhibition is 17%.
The same measure for `CC(C)CCc1sc(NC(=O)c2cc(NC(=O)c3cc(NC(=O)CCC(=O)O)cn3C)cn2C)nc1C(=O)NCCCN(C)C.O=C(O)C(F)(F)F`: -3.32%.
In the case of `Cc1ncc(CNc2ccc(F)cc2)c(N)n1`, the Inhibition is listed as 2.07%.
The same measure for `Cc1ncc(CNc2ccc(Cl)cc2)c(N)n1`: 7.56%; for `CC(C)CCc1sc(NC(=O)c2cc(NC(=O)c3ccc(/C=C/c4cc5ccccc5nc4On4nnc5ccccc54)cc3)cn2C)nc1C(=O)NCCN1CCOCC1.O=C(O)C(F)(F)F`: 11.1%; for `COC(=O)CCC(=O)Nc1cc(C(=O)Nc2cc(C(=O)NCCCN(C)C)n(C)c2)n(C)c1.O=C(O)C(F)(F)F`: 12.86%.
The same measure for `CN(C)CCCNC(=O)c1cc(NC(=O)c2cc(NC(=O)CCC(=O)O)cn2C)cn1C.O=C(O)C(F)(F)F`: 14.21%; for `Cn1cc(NC(=O)c2cc(NC(=O)c3sc(N)nc3C(F)(F)F)cn2C)cc1C(=O)NCCN1CCOCC1.O=C(O)C(F)(F)F`: 8.06%.
With `COCCOC1CCN(C(=O)c2cc(NC(=O)c3cc(NC(=O)c4ccc(/C=C/c5ccc(OC)cc5)cc4)cn3C)cn2C)CC1.O=S(=O)(O)O`, the Inhibition worked out at 5.25%.
`Cn1cc(NC(=O)c2cc(NC(=O)c3ccc(/C=C/c4cccc(F)c4)cc3)cn2C)cc1C(=O)NCCN1CCOCC1.O=C(O)C(F)(F)F`: the Inhibition is given as 5.74%.
The same measure for `CC(C)c1sc(N)nc1C(=O)Nc1cc(C(=O)Nc2cc(C(=O)NCCN3CCOCC3)n(C)c2)n(C)c1.O=C(O)C(F)(F)F`: -4.64%.
The same measure for `COc1cccc(C(=N)Nc2cc(C(=O)Nc3cc(C(=O)Nc4cn(CCCN(C)C)cn4)n(C)c3)n(C)c2)c1.O=C(O)C(F)(F)F.O=C(O)C(F)(F)F`: 13.2%.
The same measure for `COC(=O)c1ccc(C(=O)Nc2cc(C(=O)Nc3cc(C(=O)NCCC(=N)N)n(C)c3)n(C)c2)cc1.O=C(O)C(F)(F)F`: 16.58%; for `Cc1ncc(Cn2cc(CCCO)nn2)c(N)n1`: 11%.
As to `Cc1ncc(CNc2ccc(C(F)(F)F)cc2)c(N)n1`, the Inhibition amounted to 11.1%.
The same measure for `COC(=O)c1ccc(C(=O)Nc2cc(C(=O)Nc3cc(C(=O)NCCN4CCOCC4)n(C)c3)n(C)c2)cc1.O=C(O)C(F)(F)F`: 20.48%; for `CN(C)CCCNC(=O)c1cc(NC(=O)c2cc(NC(=O)c3ccc(C(=O)O)cc3)cn2C)cn1C.O=C(O)C(F)(F)F`: 12.13%; for `CC(=O)Nc1cc(C(=O)Nc2cc(C(=O)Nc3cc(C(=O)NCCCN(C)C)n(CCC(C)C)c3)n(C)c2)n(C)c1.O=C(O)C(F)(F)F`: -7.31%.
Turning to `CC(C)CCc1sc(NC(=O)c2cc(NC(=O)c3cc(NC(=O)c4ccc(C(=O)O)cc4)cn3C)cn2C)nc1C(=O)NCCCN(C)C.O=C(O)C(F)(F)F`, the Inhibition came to 4.95%.
The same measure for `CC(C)n1cc(NC(=O)c2cc(NC(=O)c3cc(NC=O)cn3C(C)C)cn2C)cc1C(=O)NCCCN(C)C.O=C(O)C(F)(F)F`: 5.76%; for `CCOC(=O)c1cc(NC(=O)c2cc(NC(=O)c3sc(N)nc3C(F)(F)F)cn2C)cn1C`: 9.83%; for `COc1cccc(C(=N)Nc2cc(C(=O)Nc3cc(C(=O)NCCC(=N)N)n(C)c3)n(C)c2)c1.O=C(O)C(F)(F)F.O=C(O)C(F)(F)F`: 3.2%.
The same measure for `Cc1ncc(Cn2cc(CO)nn2)c(N)n1`: 8.41%; for `Cn1cc(NC(=O)c2cc(NC(=O)c3sc(N)nc3C(F)(F)F)cn2C)cc1C(=O)NCCC(=N)N.O=C(O)C(F)(F)F`: 1.67%.
The same measure for `COC(=O)CCC(=O)Nc1cc(C(=O)Nc2cc(C(=O)NCCC(=N)N)n(C)c2)n(C)c1.O=C(O)C(F)(F)F`: 16.06%; for `CC(C)c1sc(N)nc1C(=O)Nc1cc(C(=O)NCCN2CCOCC2)n(C)c1.O=C(O)C(F)(F)F`: 5.27%.
With `Cc1ncc(Cn2cc(CCCCO)nn2)c(N)n1`, the Inhibition stood at 0.74%.
The same measure for `CC(C)CCc1sc(N)nc1C(=O)Nc1cc(C(=O)Nc2cc(C(=O)NCCN3CCOCC3)n(C)c2)n(C)c1.O=C(O)C(F)(F)F`: 10.41%; for `CN(C)CCCNC(=O)c1cc(NC(=O)c2cc(NC(=O)c3cc(NC(=N)N)cn3C)cn2C)cn1C.O=C(O)C(F)(F)F.O=C(O)C(F)(F)F`: 15.1%.
Turning to `Cc1ncc(Cn2cc(CCO)nn2)c(N)n1`, the Inhibition is reported as 8.75%.
The same measure for `Cn1cc(NC(=O)c2cc(NC(=O)c3cc(NC(=O)c4ccc(Cl)cc4Cl)cn3C)cn2C)cc1C(=O)NCCN1CCOCC1.O=C(O)C(F)(F)F`: 1.34%.
As for `CCOC(=O)c1cc(NC(=O)c2cc(NC(=O)c3nc(N)sc3CCC(C)C)cn2C)cn1C`, the Inhibition is given as -4%.
The same measure for `Cc1ccc(S(=O)(=O)NCCc2cn(Cc3cnc(C)nc3N)nn2)cc1`: 11.44%.
Take `CC(C)CCc1sc(NC(=O)c2cc(NC(=O)c3ccc(/C=C/c4cc5ccccc5nc4Cl)cc3)cn2C)nc1C(=O)NCCN1CCOCC1.O=C(O)C(F)(F)F`: the Inhibition is given as -1.23%.
The same measure for `COc1cccc(C(=O)Nc2cc(C(=O)Nc3cc(C(=O)Nc4cn(CCCN(C)C)cn4)n(C)c3)n(C)c2)c1.O=C(O)C(F)(F)F`: 12.51%; for `CN(C)CCCNC(=O)c1cc(NC(=O)c2cc(NC(=O)c3cc(NC(=N)c4ccccc4)cn3C)cn2C)cn1C.O=C(O)C(F)(F)F.O=C(O)C(F)(F)F`: 12.1%.
On to `COc1cccc(C(=N)Nc2cc(C(=O)Nc3cc(C(=O)Nc4cc(C(=O)NCCCN5CCOCC5)n(C)c4)n(C)c3)n(C)c2)c1.O=C(O)C(F)(F)F.O=C(O)C(F)(F)F`, for which the Inhibition is reported as 9.48%.
The same measure for `Cc1ncc(Cn2cc(CC(N)C(=O)O)nn2)c(N)n1.Cl` (centres undefined): 4.28%; for `COC(=O)c1ccc(C(=O)Nc2cc(C(=O)Nc3cc(C(=O)NCCCN(C)C)n(C)c3)n(C)c2)cc1.O=C(O)C(F)(F)F`: 12.64%.
For `Cc1ncc(CNc2cccc(F)c2)c(N)n1`, the Inhibition stood at 11.7%.
Consider `COc1cccc(/C=C/c2ccc(C(=O)Nc3cc(C(=O)Nc4cc(C(=O)NCCN(C)C)n(C)c4)n(C)c3)cc2)c1.O=C(O)C(F)(F)F`, for which the Inhibition is listed as 2.16%.
The same measure for `COc1ccc(CC(=O)Nc2cc(C(=O)Nc3cc(C(=O)Nc4cn(CCCN(C)C)cn4)n(C)c3)n(C)c2)cc1.O=C(O)C(F)(F)F`: 13.94%; for `Cn1cc(NC(=O)c2cc(NC(=O)CCC(=O)O)cn2C)cc1C(=O)NCCN1CCOCC1.O=C(O)C(F)(F)F`: 20.05%; for `CC(C)CCn1cc(NC(=O)c2cc(NC(=O)c3cc(NC(=N)c4ccccc4)cn3C)cn2C)cc1C(=O)NCCCN(C)C.O=C(O)C(F)(F)F.O=C(O)C(F)(F)F`: 3.8%.
The same measure for `COCCOC1CCN(C(=O)c2cc(NC(=O)c3cc(NC(=O)c4ccc(/C=C/c5cnc6ccccc6c5)cc4)cn3C)cn2C)CC1`: 8.98%; for `Cc1ncc(Cn2cc(CCCN)nn2)c(N)n1.Cl`: 9.36%.
The same measure for `CC(C)c1sc(NC(=O)c2cc(NC(=O)c3cc(NC(=O)c4cnc(Cl)c(Cl)c4)cn3C)cn2C)nc1C(=O)NCCCN(C)C.O=C(O)C(F)(F)F`: 1.37%; for `CC(=N)Nc1cc(C(=O)Nc2cc(C(=O)Nc3cc(C(=O)NCCN4CCOCC4)n(C)c3)n(C)c2)n(C)c1.O=C(O)C(F)(F)F.O=C(O)C(F)(F)F`: 12.92%.
For the compound `Cc1ncc(Cn2cc(CCC(=O)O)nn2)c(N)n1.O=C(O)C(F)(F)F`, the Inhibition came to 6.53%.
The same measure for `CCOC(=O)CCC(NC(=O)c1ccc(NCc2cn(Cc3cnc(C)nc3N)nn2)cc1)C(=O)OCC` (centres undefined): 10.67%; for `CN(C)CCCNC(=O)c1cc(NC(=O)c2cc(NC(=O)c3cc4ccccc4cn3)cn2C)cn1C.O=C(O)C(F)(F)F`: 14.38%; for `Cc1ncc(CNc2ccccc2F)c(N)n1`: 1.69%.
The same measure for `CCOC(=O)c1cc(NC(=O)c2cc(NC(=O)c3nc(N)sc3C(C)C)cn2C)cn1C`: 2.73%.
The same measure for `CC(=O)N(C(C)=O)c1cc(C(=O)Nc2cc(C(=O)NCCC(=N)N)n(C)c2)n(C)c1.O=C(O)C(F)(F)F`: 5.84%; for `Cc1ncc(CO)c(N)n1`: -2.97%; for `COC(=O)CCC(=O)Nc1cc(C(=O)Nc2cc(C(=O)NCCN3CCOCC3)n(C)c2)n(C)c1.O=C(O)C(F)(F)F`: 8.35%.
Take `COc1ccc(/C=C(/C(=O)Nc2cc(C(=O)Nc3cc(C(=O)NCCCN(C)C)n(C)c3)n(C)c2)c2ccc(OC)cc2)cc1.O=C(O)C(F)(F)F`: the Inhibition turned out to be 0.8%.
On to `COc1cccc(C(=N)Nc2cc(C(=O)Nc3cc(C(=O)Nc4cc(C(=O)NCCCN(C)C)n(C)c4)n(C)c3)n(C)c2)c1.O=C(O)C(F)(F)F.O=C(O)C(F)(F)F`, for which the Inhibition was 18.12%.
The same measure for `CC(=O)Nc1cc(C(=O)Nc2cc(C(=O)Nc3cc(C(=O)NCCCN(C)C)n(C)c3)n(C)c2)n(C)c1.O=C(O)C(F)(F)F`: 7.38%.
